Record: PubChem BioAssay AID493246 (Drosophila RNAi Screening Center, 2011)
Purpose: 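Identify essential fly genes by loss of cell viability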 (primary screen). Cell system: Drosophila Kc and S2R+ cells. Reagent: long dsRNA against Drosophila genes. Read-out: 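Raw, unnormalised count of remaining cells in each well; per-plate z-scores of cell number underlie the calls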. Scale: Kc cell number and S2R+ cell number: higher = more cells remaining. Hit rule: 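Active when the per-plate z-score of cell number is 3 or more in the direction of fewer cells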.
In all, the deposit lists about 21,000 reagents; below is an unselected part of those that have a named target and a result. Of all reagents, 429 (2%) are marked active. 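Values are raw and not normalised between plates; calls rest on per-plate z-scores that were not deposited.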 Entries without a mark were called inactive. A plus sign joins genes that one reagent is predicted to hit. Reagent sequences are not shown. Not given: the amount of reagent, the time to read-out.

Knock-down of Rab9Db + Rab9Fa [DRSC18445] came out at: Kc cell number, rep 1 = 1.54e6; Kc cell number, rep 2 = 1.53e6; S2R+ cell number, rep 1 = 1.02e6; S2R+ cell number, rep 2 = 1.13e6.
Depletion of tth [DRSC19435] resulted in: Kc cell number, rep 1 = 4.21e5; S2R+ cell number, rep 1 = 7.20e5.
Depletion of Vap33 [DRSC18384] gave: Kc cell number, rep 1 = 6.23e5; S2R+ cell number, rep 1 = 8.35e5.
After knock-down of Prosalpha1R + Prosalpha1 [DRSC07515] the results were Kc cell number, rep 1 = 1.04e6; Kc cell number, rep 2 = 1.14e6; S2R+ cell number, rep 1 = 6.43e5; S2R+ cell number, rep 2 = 7.40e5.
Lsd-2 [DRSC20143] showed Kc cell number, rep 1 = 5.99e5; S2R+ cell number, rep 1 = 8.61e5.
Against Alp10 [DRSC09749], the values are Kc cell number, rep 1 = 1.34e6; Kc cell number, rep 2 = 1.26e6; S2R+ cell number, rep 1 = 1.15e6; S2R+ cell number, rep 2 = 1.21e6.
For CG14787 [DRSC18606], the entry reads Kc cell number, rep 1 = 1.57e6; Kc cell number, rep 2 = 1.58e6; S2R+ cell number, rep 1 = 8.87e5; S2R+ cell number, rep 2 = 1.04e6.
CG18294 [DRSC09891] showed Kc cell number, rep 1 = 1.29e6; Kc cell number, rep 2 = 1.43e6; S2R+ cell number, rep 1 = 1.24e6; S2R+ cell number, rep 2 = 1.27e6.
For CG34169 [DRSC01579], the values are Kc cell number, rep 1 = 1.57e6; Kc cell number, rep 2 = 1.63e6; S2R+ cell number, rep 1 = 9.59e5; S2R+ cell number, rep 2 = 1.20e6.
Against Kdm5 [DRSC03133], the values are Kc cell number, rep 1 = 1.38e6; Kc cell number, rep 2 = 1.40e6; S2R+ cell number, rep 1 = 6.21e5; S2R+ cell number, rep 2 = 8.19e5.
Against Or42b [DRSC04913], the entry reads Kc cell number, rep 1 = 1.64e6; Kc cell number, rep 2 = 1.68e6; S2R+ cell number, rep 1 = 1.40e6; S2R+ cell number, rep 2 = 1.44e6.
After knock-down of CG15484 [DRSC02494], the screen gave Kc cell number, rep 1 = 1.45e6; Kc cell number, rep 2 = 1.45e6; S2R+ cell number, rep 1 = 1.05e6; S2R+ cell number, rep 2 = 1.13e6.

Ordered by “Kc cell number, rep 1” (lowest first): some entries from above
Kdm5 [DRSC03133] → Kc cell number, rep 1 = 1.38e6; Kc cell number, rep 2 = 1.40e6; S2R+ cell number, rep 1 = 6.21e5; S2R+ cell number, rep 2 = 8.19e5
CG34169 [DRSC01579] → Kc cell number, rep 1 = 1.57e6; Kc cell number, rep 2 = 1.63e6; S2R+ cell number, rep 1 = 9.59e5; S2R+ cell number, rep 2 = 1.20e6
Or42b [DRSC04913] → Kc cell number, rep 1 = 1.64e6; Kc cell number, rep 2 = 1.68e6; S2R+ cell number, rep 1 = 1.40e6; S2R+ cell number, rep 2 = 1.44e6

Additional records:
For Sas-4 [DRSC12505], the values are Kc cell number, rep 1 = 1.62e6; Kc cell number, rep 2 = 1.71e6; S2R+ cell number, rep 1 = 1.29e6; S2R+ cell number, rep 2 = 1.32e6.
For tgo [DRSC17077] the deposit lists Kc cell number, rep 1 = 1.40e6; Kc cell number, rep 2 = 1.50e6; S2R+ cell number, rep 1 = 1.21e6; S2R+ cell number, rep 2 = 1.29e6.
For CG7806 [DRSC03071], the values are Kc cell number, rep 1 = 1.38e6; Kc cell number, rep 2 = 1.39e6; S2R+ cell number, rep 1 = 7.69e5; S2R+ cell number, rep 2 = 9.58e5.
For Nepl3 [DRSC02681], the entry reads Kc cell number, rep 1 = 1.27e6; Kc cell number, rep 2 = 1.37e6; S2R+ cell number, rep 1 = 5.23e5; S2R+ cell number, rep 2 = 7.56e5.
Silencing of CG32333 [DRSC08627] gave: Kc cell number, rep 1 = 1.39e6; Kc cell number, rep 2 = 1.46e6; S2R+ cell number, rep 1 = 1.10e6; S2R+ cell number, rep 2 = 1.13e6.
Silencing of CG32333 [DRSC08629] resulted in: Kc cell number, rep 1 = 1.42e6; Kc cell number, rep 2 = 1.29e6; S2R+ cell number, rep 1 = 7.71e5; S2R+ cell number, rep 2 = 9.66e5.
Depletion of CG32249 [DRSC08101] came out at: Kc cell number, rep 1 = 1.38e6; Kc cell number, rep 2 = 1.29e6; S2R+ cell number, rep 1 = 1.00e6; S2R+ cell number, rep 2 = 1.12e6.
After knock-down of CG32249 [DRSC08177], the screen gave Kc cell number, rep 1 = 1.53e6; Kc cell number, rep 2 = 1.44e6; S2R+ cell number, rep 1 = 1.06e6; S2R+ cell number, rep 2 = 1.21e6.
Against PTPMT1 [DRSC14235] the deposit lists Kc cell number, rep 1 = 1.47e6; Kc cell number, rep 2 = 1.49e6; S2R+ cell number, rep 1 = 9.41e5; S2R+ cell number, rep 2 = 1.10e6.
CG9284 (retired record) [DRSC03899] showed Kc cell number, rep 1 = 5.04e5; S2R+ cell number, rep 1 = 8.31e5.
After knock-down of CG9284 (retired record) [DRSC04536], the record shows Kc cell number, rep 1 = 1.46e6; Kc cell number, rep 2 = 1.48e6; S2R+ cell number, rep 1 = 1.00e6; S2R+ cell number, rep 2 = 1.05e6.
With knock-down of CG32022 [DRSC09678] the results were Kc cell number, rep 1 = 1.60e6; Kc cell number, rep 2 = 1.50e6; S2R+ cell number, rep 1 = 1.09e6; S2R+ cell number, rep 2 = 1.16e6.
CG42594 [DRSC18053] showed Kc cell number, rep 1 = 3.81e5 (active); Kc cell number, rep 2 = 4.83e5; S2R+ cell number, rep 1 = 4.46e5; S2R+ cell number, rep 2 = 5.72e5.
Knock-down of CG42594 [DRSC18408] came out at: Kc cell number, rep 1 = 1.58e6; Kc cell number, rep 2 = 1.54e6; S2R+ cell number, rep 1 = 1.09e6; S2R+ cell number, rep 2 = 1.22e6.
PCNA2 [DRSC02030] scored Kc cell number, rep 1 = 1.65e6; Kc cell number, rep 2 = 1.74e6; S2R+ cell number, rep 1 = 1.37e6; S2R+ cell number, rep 2 = 7.67e5.
